Reference: the supplement of paper PMC12823440, “Inhibitors supercharge kinase turnover through native proteolytic circuits” (Nature, 2025)
Structures can show the parent of a compound that is named as a salt. This is one part of the list. The calls rarely recur for the same compound in another form.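 Kinases, fused to nanoluciferase, were expressed in K562 cells; luminescence was measured every 4 h from 2 to 18 h as percent of control (DMSO = 100%, positive control = 0%). A time point is decreased if signal falls significantly (2 sigma). Hits were called by the authors by a rule that is not shown; the count of time points alone does not decide it.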

By UniProt entry, the sequences of proteins in these tests, tags left out. Where a name states a change or a piece, a line headed by the entry shows the natural chain unless it says otherwise.
UniProt Q15208: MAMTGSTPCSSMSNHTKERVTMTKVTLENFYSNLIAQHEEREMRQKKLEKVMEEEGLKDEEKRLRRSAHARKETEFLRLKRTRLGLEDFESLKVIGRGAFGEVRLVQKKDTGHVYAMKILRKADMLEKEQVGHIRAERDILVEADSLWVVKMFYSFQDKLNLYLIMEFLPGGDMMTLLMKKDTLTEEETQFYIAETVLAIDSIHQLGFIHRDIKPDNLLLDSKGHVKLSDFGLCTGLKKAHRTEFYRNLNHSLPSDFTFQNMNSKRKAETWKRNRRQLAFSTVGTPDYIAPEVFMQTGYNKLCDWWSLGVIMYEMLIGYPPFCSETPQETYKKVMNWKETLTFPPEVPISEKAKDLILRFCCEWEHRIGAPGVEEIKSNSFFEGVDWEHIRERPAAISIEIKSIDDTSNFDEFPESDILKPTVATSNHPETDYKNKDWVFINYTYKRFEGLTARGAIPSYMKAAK
UniProt Q6PHR2: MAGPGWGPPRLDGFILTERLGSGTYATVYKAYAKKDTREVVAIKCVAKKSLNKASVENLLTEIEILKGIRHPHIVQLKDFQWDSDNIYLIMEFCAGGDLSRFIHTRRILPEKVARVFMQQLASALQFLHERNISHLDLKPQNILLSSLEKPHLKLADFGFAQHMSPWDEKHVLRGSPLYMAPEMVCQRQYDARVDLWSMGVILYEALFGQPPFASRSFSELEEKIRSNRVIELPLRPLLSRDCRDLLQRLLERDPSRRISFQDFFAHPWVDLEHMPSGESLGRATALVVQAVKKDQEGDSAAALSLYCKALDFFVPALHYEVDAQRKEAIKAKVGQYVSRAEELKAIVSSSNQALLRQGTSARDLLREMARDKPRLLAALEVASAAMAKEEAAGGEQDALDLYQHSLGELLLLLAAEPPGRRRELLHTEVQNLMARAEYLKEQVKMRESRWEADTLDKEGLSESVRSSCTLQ
UniProt Q9UM73: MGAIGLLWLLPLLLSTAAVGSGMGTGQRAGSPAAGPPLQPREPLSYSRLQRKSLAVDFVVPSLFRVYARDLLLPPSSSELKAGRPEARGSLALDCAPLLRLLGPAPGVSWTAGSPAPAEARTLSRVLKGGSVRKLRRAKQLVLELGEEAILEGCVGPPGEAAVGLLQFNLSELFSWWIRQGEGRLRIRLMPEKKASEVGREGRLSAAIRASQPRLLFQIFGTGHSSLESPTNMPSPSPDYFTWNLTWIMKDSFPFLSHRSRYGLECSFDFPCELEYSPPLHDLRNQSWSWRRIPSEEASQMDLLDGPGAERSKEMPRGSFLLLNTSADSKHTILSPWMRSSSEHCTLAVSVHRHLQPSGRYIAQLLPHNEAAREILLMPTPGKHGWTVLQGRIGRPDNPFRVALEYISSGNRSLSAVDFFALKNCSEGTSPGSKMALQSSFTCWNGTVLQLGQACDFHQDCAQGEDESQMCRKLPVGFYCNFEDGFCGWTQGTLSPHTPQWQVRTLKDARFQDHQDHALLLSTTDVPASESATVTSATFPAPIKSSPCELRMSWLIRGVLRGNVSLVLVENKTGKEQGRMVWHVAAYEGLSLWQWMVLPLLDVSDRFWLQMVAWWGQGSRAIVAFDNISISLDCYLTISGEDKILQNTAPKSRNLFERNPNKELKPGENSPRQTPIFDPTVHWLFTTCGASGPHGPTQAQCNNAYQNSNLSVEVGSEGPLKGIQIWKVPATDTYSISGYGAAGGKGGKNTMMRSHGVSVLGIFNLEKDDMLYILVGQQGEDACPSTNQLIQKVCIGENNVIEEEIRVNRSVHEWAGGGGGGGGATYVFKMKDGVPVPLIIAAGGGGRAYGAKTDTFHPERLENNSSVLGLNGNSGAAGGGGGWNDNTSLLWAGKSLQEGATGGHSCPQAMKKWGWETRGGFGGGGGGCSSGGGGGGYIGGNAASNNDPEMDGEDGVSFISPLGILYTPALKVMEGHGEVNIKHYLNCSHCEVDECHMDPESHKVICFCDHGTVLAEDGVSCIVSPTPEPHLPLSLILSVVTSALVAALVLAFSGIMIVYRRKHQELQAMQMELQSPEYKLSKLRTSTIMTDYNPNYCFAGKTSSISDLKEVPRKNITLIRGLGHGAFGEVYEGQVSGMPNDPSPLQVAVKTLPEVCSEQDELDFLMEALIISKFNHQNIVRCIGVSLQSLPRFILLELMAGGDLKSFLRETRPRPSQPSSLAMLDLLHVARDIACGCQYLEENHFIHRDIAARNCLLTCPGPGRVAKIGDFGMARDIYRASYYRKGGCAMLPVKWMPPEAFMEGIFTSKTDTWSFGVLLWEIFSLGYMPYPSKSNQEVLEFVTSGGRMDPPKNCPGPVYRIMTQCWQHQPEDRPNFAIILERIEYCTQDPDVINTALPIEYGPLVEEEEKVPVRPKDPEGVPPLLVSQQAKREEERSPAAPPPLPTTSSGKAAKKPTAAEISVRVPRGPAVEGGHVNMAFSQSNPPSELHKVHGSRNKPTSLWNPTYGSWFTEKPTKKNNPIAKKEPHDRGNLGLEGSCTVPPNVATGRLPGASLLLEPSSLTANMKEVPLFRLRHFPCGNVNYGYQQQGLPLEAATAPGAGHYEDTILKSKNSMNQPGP
UniProt P10398: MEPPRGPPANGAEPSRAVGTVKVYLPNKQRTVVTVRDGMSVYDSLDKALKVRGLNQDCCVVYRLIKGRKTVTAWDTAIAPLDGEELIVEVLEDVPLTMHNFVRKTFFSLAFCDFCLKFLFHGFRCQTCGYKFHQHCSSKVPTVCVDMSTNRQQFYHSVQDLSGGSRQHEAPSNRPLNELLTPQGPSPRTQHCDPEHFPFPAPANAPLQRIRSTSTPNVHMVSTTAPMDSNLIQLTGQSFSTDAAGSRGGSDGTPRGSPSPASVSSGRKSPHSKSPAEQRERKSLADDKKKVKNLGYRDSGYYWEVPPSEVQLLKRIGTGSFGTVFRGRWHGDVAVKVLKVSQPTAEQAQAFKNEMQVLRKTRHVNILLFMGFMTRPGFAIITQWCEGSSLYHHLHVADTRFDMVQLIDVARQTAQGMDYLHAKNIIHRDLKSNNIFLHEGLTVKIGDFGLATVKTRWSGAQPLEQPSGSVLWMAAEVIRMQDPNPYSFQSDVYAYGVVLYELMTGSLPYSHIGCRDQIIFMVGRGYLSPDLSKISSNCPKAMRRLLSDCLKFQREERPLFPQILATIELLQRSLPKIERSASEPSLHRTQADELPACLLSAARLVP
UniProt O14965: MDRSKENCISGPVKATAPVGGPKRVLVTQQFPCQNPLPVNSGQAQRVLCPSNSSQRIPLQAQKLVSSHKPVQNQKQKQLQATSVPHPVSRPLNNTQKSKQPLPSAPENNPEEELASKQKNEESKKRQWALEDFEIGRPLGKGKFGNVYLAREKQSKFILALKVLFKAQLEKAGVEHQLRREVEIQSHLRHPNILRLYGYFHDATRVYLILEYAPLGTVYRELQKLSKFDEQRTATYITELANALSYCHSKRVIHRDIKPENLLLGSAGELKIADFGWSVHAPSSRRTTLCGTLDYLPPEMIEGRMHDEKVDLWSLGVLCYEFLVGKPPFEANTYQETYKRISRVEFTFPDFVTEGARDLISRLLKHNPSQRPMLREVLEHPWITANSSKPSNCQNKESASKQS
UniProt Q96GD4, whole entry: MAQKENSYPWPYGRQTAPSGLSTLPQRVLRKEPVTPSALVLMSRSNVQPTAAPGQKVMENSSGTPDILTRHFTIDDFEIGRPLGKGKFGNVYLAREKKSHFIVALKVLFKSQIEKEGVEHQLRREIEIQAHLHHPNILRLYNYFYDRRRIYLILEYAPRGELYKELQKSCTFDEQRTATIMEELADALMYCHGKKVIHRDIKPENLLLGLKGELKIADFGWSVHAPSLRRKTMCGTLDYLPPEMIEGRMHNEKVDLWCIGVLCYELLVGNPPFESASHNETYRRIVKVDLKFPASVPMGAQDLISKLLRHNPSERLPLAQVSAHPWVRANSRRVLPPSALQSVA
UniProt P51451: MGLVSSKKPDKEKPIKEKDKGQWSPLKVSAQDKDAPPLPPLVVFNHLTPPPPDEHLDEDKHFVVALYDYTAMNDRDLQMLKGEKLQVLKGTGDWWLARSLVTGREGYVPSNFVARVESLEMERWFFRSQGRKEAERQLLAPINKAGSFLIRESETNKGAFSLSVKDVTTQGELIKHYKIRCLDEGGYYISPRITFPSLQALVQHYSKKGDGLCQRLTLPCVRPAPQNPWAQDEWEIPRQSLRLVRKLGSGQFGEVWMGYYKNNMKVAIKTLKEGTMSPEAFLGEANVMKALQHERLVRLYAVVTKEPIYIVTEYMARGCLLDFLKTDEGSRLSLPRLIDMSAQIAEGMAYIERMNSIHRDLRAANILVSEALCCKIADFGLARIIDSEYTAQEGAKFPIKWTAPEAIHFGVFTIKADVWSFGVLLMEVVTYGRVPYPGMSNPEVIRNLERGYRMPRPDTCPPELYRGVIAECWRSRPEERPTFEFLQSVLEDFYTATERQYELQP
UniProt P51813: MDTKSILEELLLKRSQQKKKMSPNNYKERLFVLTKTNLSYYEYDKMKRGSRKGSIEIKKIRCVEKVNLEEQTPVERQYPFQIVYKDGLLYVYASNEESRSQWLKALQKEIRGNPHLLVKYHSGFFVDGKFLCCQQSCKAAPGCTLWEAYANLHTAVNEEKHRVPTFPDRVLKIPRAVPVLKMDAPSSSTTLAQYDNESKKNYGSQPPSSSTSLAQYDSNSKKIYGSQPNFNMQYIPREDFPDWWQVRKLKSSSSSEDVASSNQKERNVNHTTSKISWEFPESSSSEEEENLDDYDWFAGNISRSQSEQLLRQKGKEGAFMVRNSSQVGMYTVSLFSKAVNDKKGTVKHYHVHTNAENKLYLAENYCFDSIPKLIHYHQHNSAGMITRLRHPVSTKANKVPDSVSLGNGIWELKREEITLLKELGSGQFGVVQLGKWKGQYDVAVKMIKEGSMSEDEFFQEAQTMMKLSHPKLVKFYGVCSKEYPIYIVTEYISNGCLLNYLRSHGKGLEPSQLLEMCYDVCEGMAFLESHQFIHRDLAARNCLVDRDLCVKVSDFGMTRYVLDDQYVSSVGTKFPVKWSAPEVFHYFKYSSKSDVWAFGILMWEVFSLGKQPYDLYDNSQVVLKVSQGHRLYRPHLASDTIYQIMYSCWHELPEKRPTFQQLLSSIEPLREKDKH
UniProt P15056, whole entry, looked up: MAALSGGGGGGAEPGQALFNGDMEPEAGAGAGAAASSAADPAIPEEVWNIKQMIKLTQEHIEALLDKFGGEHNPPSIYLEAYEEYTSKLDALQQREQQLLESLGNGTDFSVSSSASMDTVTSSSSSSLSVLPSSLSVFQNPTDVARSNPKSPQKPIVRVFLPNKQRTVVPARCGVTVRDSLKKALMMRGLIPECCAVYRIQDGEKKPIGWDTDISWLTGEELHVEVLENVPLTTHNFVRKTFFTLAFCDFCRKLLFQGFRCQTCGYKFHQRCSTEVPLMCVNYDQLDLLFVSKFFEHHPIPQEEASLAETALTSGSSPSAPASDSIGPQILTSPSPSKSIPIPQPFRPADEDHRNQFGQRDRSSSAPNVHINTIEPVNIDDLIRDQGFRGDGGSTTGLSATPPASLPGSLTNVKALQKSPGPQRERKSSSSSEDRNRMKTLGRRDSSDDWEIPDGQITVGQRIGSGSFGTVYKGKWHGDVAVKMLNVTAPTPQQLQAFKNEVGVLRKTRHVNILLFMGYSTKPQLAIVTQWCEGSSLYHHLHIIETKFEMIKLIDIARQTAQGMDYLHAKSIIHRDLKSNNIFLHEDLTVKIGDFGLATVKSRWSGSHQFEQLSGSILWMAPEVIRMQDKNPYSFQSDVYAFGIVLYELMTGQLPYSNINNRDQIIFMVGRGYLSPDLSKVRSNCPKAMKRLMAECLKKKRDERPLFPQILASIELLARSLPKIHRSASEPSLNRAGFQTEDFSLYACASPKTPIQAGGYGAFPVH
UniProt Q06187: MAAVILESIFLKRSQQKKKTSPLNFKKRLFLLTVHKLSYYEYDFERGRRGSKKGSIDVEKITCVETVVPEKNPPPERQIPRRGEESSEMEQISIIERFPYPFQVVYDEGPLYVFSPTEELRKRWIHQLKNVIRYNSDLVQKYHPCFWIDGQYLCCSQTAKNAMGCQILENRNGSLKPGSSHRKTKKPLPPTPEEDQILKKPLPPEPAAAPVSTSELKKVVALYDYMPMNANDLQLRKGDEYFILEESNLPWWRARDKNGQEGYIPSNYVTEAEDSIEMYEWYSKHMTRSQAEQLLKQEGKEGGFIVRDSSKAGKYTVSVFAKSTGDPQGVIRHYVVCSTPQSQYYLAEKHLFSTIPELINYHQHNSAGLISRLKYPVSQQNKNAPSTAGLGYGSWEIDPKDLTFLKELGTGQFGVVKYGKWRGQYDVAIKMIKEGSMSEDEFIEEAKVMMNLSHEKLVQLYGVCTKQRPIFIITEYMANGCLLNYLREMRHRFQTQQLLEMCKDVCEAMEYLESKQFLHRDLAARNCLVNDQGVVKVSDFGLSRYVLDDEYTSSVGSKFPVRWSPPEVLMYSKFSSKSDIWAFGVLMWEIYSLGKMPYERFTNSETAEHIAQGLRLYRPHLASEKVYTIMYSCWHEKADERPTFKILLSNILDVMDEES

Tests used:
Details in all cases: K562; 2-18 h
STK38 = STK38 (UniProt Q15208); assay: kinase-Nluc reporter destabilization hit call (1 = scored as downregulated) (binary); higher = compound decreases kinase abundance
SYK = SYK (UniProt P43405); assay: as above
TEC = TEC (UniProt P42680); assay: as above
TYK2 = TYK2 (UniProt P29597); assay: as above
ULK3 = ULK3 (UniProt Q6PHR2); assay: as above
YES1 = YES1 (UniProt P07947); assay: as above
ZAK = ZAK (UniProt Q9NYL2); assay: as above
ZAP70 = ZAP70 (UniProt P43403); assay: as above
ABL1 = ABL1 (UniProt P00519); assay: number of time points (of 5) at which kinase-Nluc abundance scored as decreased, DMSO-normalised (count); higher = more persistent destabilization
AKT1 = AKT1 (UniProt P31749); assay: as above
ALK = ALK (UniProt Q9UM73); assay: as above
ARAF = ARAF (UniProt P10398); assay: as above
AURKA = AURKA (UniProt O14965); assay: as above
AURKB = AURKB (UniProt Q96GD4); assay: as above
AURKC = AURKC (UniProt Q9UQB9); assay: as above
BLK = BLK (UniProt P51451); assay: as above
BMX = BMX (UniProt P51813); assay: as above
BRAF = BRAF (UniProt P15056); assay: as above
BRAF_V600E = assay: as above
BTK = BTK (UniProt Q06187); assay: as above

N[C@@H](CCC(=O)O)C(=O)N[C@@H](Cc1c[nH]c2ccccc12)C(=O)O [Oglufanide] (10 µM)
inactive: kinase-Nluc reporter destabilization hit call (STK38) 0 | kinase-Nluc reporter destabilization hit call (SYK) 0 | kinase-Nluc reporter destabilization hit call (TEC) 0 | kinase-Nluc reporter destabilization hit call (TYK2) 0 | kinase-Nluc reporter destabilization hit call (ULK3) 0 | kinase-Nluc reporter destabilization hit call (YES1) 0 | kinase-Nluc reporter destabilization hit call (ZAK) 0 | kinase-Nluc reporter destabilization hit call (ZAP70) 0
0: number of time points (ABL1) | number of time points (AKT1) | number of time points (ALK) | number of time points (ARAF) | number of time points (AURKA) | number of time points (AURKB) | number of time points (AURKC) | number of time points (BLK) | number of time points (BMX) | number of time points (BRAF) | number of time points (BRAF_V600E) | number of time points (BTK)

FC(F)(F)c1ccc(/C=C/c2nc(COc3ccc(CCCCn4ccnn4)cc3)co2)cc1 [Mubritinib] (10 µM)
0: number of time points (ABL1) | number of time points (AKT1) | number of time points (ALK) | number of time points (ARAF) | number of time points (AURKA) | number of time points (AURKB) | number of time points (AURKC) | number of time points (BLK) | number of time points (BRAF) | number of time points (BTK)
1: number of time points (BMX) | number of time points (BRAF_V600E)
inactive: kinase-Nluc reporter destabilization hit call (STK38) 0 | kinase-Nluc reporter destabilization hit call (SYK) 0 | kinase-Nluc reporter destabilization hit call (TEC) 0 | kinase-Nluc reporter destabilization hit call (TYK2) 0 | kinase-Nluc reporter destabilization hit call (ULK3) 0 | kinase-Nluc reporter destabilization hit call (YES1) 0 | kinase-Nluc reporter destabilization hit call (ZAK) 0 | kinase-Nluc reporter destabilization hit call (ZAP70) 0

C[C@@H]1O[C@@H](O[C@@H]2[C@@H](O)[C@H](OCCc3ccc(O)c(O)c3)O[C@H](CO)[C@H]2OC(=O)/C=C/c2ccc(O)c(O)c2)[C@H](O)[C@H](O)[C@H]1O [Verbascoside] (10 µM)
inactive: kinase-Nluc reporter destabilization hit call (STK38) 0 | kinase-Nluc reporter destabilization hit call (SYK) 0 | kinase-Nluc reporter destabilization hit call (TEC) 0 | kinase-Nluc reporter destabilization hit call (TYK2) 0 | kinase-Nluc reporter destabilization hit call (ULK3) 0 | kinase-Nluc reporter destabilization hit call (YES1) 0 | kinase-Nluc reporter destabilization hit call (ZAK) 0 | kinase-Nluc reporter destabilization hit call (ZAP70) 0
0: number of time points (ABL1) | number of time points (AKT1) | number of time points (ALK) | number of time points (ARAF) | number of time points (AURKA) | number of time points (AURKB) | number of time points (AURKC) | number of time points (BLK) | number of time points (BMX) | number of time points (BRAF) | number of time points (BRAF_V600E) | number of time points (BTK)

O=C(N[C@@H](C1CC1)C(F)(F)F)c1cc(-c2cnn3cc(-c4ccc(F)cc4)cnc23)cs1 (10 µM)
0: number of time points (ABL1) | number of time points (AKT1) | number of time points (ALK) | number of time points (ARAF) | number of time points (AURKA) | number of time points (AURKB) | number of time points (AURKC) | number of time points (BLK) | number of time points (BMX) | number of time points (BRAF) | number of time points (BRAF_V600E) | number of time points (BTK)
inactive: kinase-Nluc reporter destabilization hit call (STK38) 0 | kinase-Nluc reporter destabilization hit call (SYK) 0 | kinase-Nluc reporter destabilization hit call (TEC) 0 | kinase-Nluc reporter destabilization hit call (TYK2) 0 | kinase-Nluc reporter destabilization hit call (ULK3) 0 | kinase-Nluc reporter destabilization hit call (YES1) 0 | kinase-Nluc reporter destabilization hit call (ZAK) 0 | kinase-Nluc reporter destabilization hit call (ZAP70) 0

COc1cc(/C=C/C(=O)N2CCC=CC2=O)cc(OC)c1OC [Piperlongumine] (2.5 µM)
4: number of time points (BRAF_V600E)
0: number of time points (AKT1) | number of time points (ALK) | number of time points (ARAF) | number of time points (AURKA) | number of time points (AURKB) | number of time points (AURKC) | number of time points (BLK) | number of time points (BMX) | number of time points (BRAF) | number of time points (BTK)
3: number of time points (ABL1)
inactive: kinase-Nluc reporter destabilization hit call (STK38) 0 | kinase-Nluc reporter destabilization hit call (SYK) 0 | kinase-Nluc reporter destabilization hit call (TEC) 0 | kinase-Nluc reporter destabilization hit call (TYK2) 0 | kinase-Nluc reporter destabilization hit call (ULK3) 0 | kinase-Nluc reporter destabilization hit call (YES1) 0 | kinase-Nluc reporter destabilization hit call (ZAK) 0 | kinase-Nluc reporter destabilization hit call (ZAP70) 0

Cc1ccc(C(=O)Nc2sc(Nc3ccccc3)nc2C(N)=O)cc1 (10 µM)
inactive: kinase-Nluc reporter destabilization hit call (STK38) 0 | kinase-Nluc reporter destabilization hit call (SYK) 0 | kinase-Nluc reporter destabilization hit call (TEC) 0 | kinase-Nluc reporter destabilization hit call (TYK2) 0 | kinase-Nluc reporter destabilization hit call (ULK3) 0 | kinase-Nluc reporter destabilization hit call (YES1) 0 | kinase-Nluc reporter destabilization hit call (ZAK) 0 | kinase-Nluc reporter destabilization hit call (ZAP70) 0
0: number of time points (ABL1) | number of time points (AKT1) | number of time points (ALK) | number of time points (ARAF) | number of time points (AURKA) | number of time points (AURKB) | number of time points (AURKC) | number of time points (BLK) | number of time points (BMX) | number of time points (BRAF) | number of time points (BRAF_V600E) | number of time points (BTK)

N#Cc1ccnc(Nc2cc(C3CCN(C4COC4)CC3)cc(N3CCC(F)(F)C3)n2)c1 (2.5 µM)
0: number of time points (ABL1) | number of time points (AKT1) | number of time points (ALK) | number of time points (ARAF) | number of time points (AURKA) | number of time points (AURKB) | number of time points (AURKC) | number of time points (BLK) | number of time points (BMX) | number of time points (BRAF) | number of time points (BRAF_V600E) | number of time points (BTK)
inactive: kinase-Nluc reporter destabilization hit call (STK38) 0 | kinase-Nluc reporter destabilization hit call (SYK) 0 | kinase-Nluc reporter destabilization hit call (TEC) 0 | kinase-Nluc reporter destabilization hit call (TYK2) 0 | kinase-Nluc reporter destabilization hit call (ULK3) 0 | kinase-Nluc reporter destabilization hit call (YES1) 0 | kinase-Nluc reporter destabilization hit call (ZAK) 0 | kinase-Nluc reporter destabilization hit call (ZAP70) 0

CC1(C)Cc2c(sc(NC(=S)NC(=O)c3ccccc3)c2C(=O)O)CO1 (10 µM)
2: number of time points (BMX)
0: number of time points (ABL1) | number of time points (AKT1) | number of time points (ALK) | number of time points (ARAF) | number of time points (AURKA) | number of time points (AURKB) | number of time points (AURKC) | number of time points (BLK) | number of time points (BRAF) | number of time points (BRAF_V600E) | number of time points (BTK)
inactive: kinase-Nluc reporter destabilization hit call (STK38) 0 | kinase-Nluc reporter destabilization hit call (SYK) 0 | kinase-Nluc reporter destabilization hit call (TEC) 0 | kinase-Nluc reporter destabilization hit call (TYK2) 0 | kinase-Nluc reporter destabilization hit call (ULK3) 0 | kinase-Nluc reporter destabilization hit call (YES1) 0 | kinase-Nluc reporter destabilization hit call (ZAK) 0 | kinase-Nluc reporter destabilization hit call (ZAP70) 0

O=C(Nc1nc2ccc(NC(=O)C34CC5CC(CC(C5)C3)C4)cc2s1)c1ccccc1 (10 µM)
2: number of time points (ABL1)
inactive: kinase-Nluc reporter destabilization hit call (STK38) 0 | kinase-Nluc reporter destabilization hit call (SYK) 0 | kinase-Nluc reporter destabilization hit call (TEC) 0 | kinase-Nluc reporter destabilization hit call (TYK2) 0 | kinase-Nluc reporter destabilization hit call (ULK3) 0 | kinase-Nluc reporter destabilization hit call (YES1) 0 | kinase-Nluc reporter destabilization hit call (ZAK) 0 | kinase-Nluc reporter destabilization hit call (ZAP70) 0
1: number of time points (BMX)
0: number of time points (AKT1) | number of time points (ALK) | number of time points (ARAF) | number of time points (AURKA) | number of time points (AURKB) | number of time points (AURKC) | number of time points (BLK) | number of time points (BRAF) | number of time points (BRAF_V600E) | number of time points (BTK)

2 records picked at random from the list so far:
COc1cc(/C=C/C(=O)N2CCC=CC2=O)cc(OC)c1OC [Piperlongumine] (2.5 µM)
4: number of time points (BRAF_V600E)
0: number of time points (AKT1) | number of time points (ALK) | number of time points (ARAF) | number of time points (AURKA) | number of time points (AURKB) | number of time points (AURKC) | number of time points (BLK) | number of time points (BMX) | number of time points (BRAF) | number of time points (BTK)
3: number of time points (ABL1)
inactive: kinase-Nluc reporter destabilization hit call (STK38) 0 | kinase-Nluc reporter destabilization hit call (SYK) 0 | kinase-Nluc reporter destabilization hit call (TEC) 0 | kinase-Nluc reporter destabilization hit call (TYK2) 0 | kinase-Nluc reporter destabilization hit call (ULK3) 0 | kinase-Nluc reporter destabilization hit call (YES1) 0 | kinase-Nluc reporter destabilization hit call (ZAK) 0 | kinase-Nluc reporter destabilization hit call (ZAP70) 0

N#Cc1ccnc(Nc2cc(C3CCN(C4COC4)CC3)cc(N3CCC(F)(F)C3)n2)c1 (2.5 µM)
0: number of time points (ABL1) | number of time points (AKT1) | number of time points (ALK) | number of time points (ARAF) | number of time points (AURKA) | number of time points (AURKB) | number of time points (AURKC) | number of time points (BLK) | number of time points (BMX) | number of time points (BRAF) | number of time points (BRAF_V600E) | number of time points (BTK)
inactive: kinase-Nluc reporter destabilization hit call (STK38) 0 | kinase-Nluc reporter destabilization hit call (SYK) 0 | kinase-Nluc reporter destabilization hit call (TEC) 0 | kinase-Nluc reporter destabilization hit call (TYK2) 0 | kinase-Nluc reporter destabilization hit call (ULK3) 0 | kinase-Nluc reporter destabilization hit call (YES1) 0 | kinase-Nluc reporter destabilization hit call (ZAK) 0 | kinase-Nluc reporter destabilization hit call (ZAP70) 0

Next compounds follow:

CNC(=O)c1cc2c(Oc3ccc(NC(=S)NC(=O)Cc4ccccc4)cc3F)ccnc2cc1OC [TAS-115 mesylate] (10 µM)
0: number of time points (ABL1) | number of time points (AKT1) | number of time points (ALK) | number of time points (AURKA) | number of time points (AURKB) | number of time points (BLK)
3: number of time points (BRAF_V600E)
2: number of time points (BMX) | number of time points (BRAF)
inactive: kinase-Nluc reporter destabilization hit call (STK38) 0 | kinase-Nluc reporter destabilization hit call (SYK) 0 | kinase-Nluc reporter destabilization hit call (TEC) 0 | kinase-Nluc reporter destabilization hit call (TYK2) 0 | kinase-Nluc reporter destabilization hit call (ULK3) 0 | kinase-Nluc reporter destabilization hit call (YES1) 0 | kinase-Nluc reporter destabilization hit call (ZAK) 0 | kinase-Nluc reporter destabilization hit call (ZAP70) 0
1: number of time points (ARAF) | number of time points (AURKC) | number of time points (BTK)

C[C@@H]1COCCN1c1nc(-c2cnc(N)cc2C(F)F)nc(N2[C@H](C)COC[C@@H]2C)n1 (2.5 µM)
inactive: kinase-Nluc reporter destabilization hit call (STK38) 0 | kinase-Nluc reporter destabilization hit call (SYK) 0 | kinase-Nluc reporter destabilization hit call (TEC) 0 | kinase-Nluc reporter destabilization hit call (TYK2) 0 | kinase-Nluc reporter destabilization hit call (ULK3) 0 | kinase-Nluc reporter destabilization hit call (YES1) 0 | kinase-Nluc reporter destabilization hit call (ZAK) 0 | kinase-Nluc reporter destabilization hit call (ZAP70) 0
1: number of time points (BMX)
3: number of time points (AURKA)
0: number of time points (AKT1) | number of time points (ALK) | number of time points (ARAF) | number of time points (AURKB) | number of time points (AURKC) | number of time points (BLK) | number of time points (BRAF) | number of time points (BTK)
2: number of time points (BRAF_V600E)
5: number of time points (ABL1)
